# Experimental data as given in PubChem BioAssay AID1671190 (National Center for Advancing Translational Sciences (NCATS), 2021).
# Sequences of proteins named here, by UniProt entry; tags and fusion partners are left off.
# UniProt P18054, whole entry, looked up: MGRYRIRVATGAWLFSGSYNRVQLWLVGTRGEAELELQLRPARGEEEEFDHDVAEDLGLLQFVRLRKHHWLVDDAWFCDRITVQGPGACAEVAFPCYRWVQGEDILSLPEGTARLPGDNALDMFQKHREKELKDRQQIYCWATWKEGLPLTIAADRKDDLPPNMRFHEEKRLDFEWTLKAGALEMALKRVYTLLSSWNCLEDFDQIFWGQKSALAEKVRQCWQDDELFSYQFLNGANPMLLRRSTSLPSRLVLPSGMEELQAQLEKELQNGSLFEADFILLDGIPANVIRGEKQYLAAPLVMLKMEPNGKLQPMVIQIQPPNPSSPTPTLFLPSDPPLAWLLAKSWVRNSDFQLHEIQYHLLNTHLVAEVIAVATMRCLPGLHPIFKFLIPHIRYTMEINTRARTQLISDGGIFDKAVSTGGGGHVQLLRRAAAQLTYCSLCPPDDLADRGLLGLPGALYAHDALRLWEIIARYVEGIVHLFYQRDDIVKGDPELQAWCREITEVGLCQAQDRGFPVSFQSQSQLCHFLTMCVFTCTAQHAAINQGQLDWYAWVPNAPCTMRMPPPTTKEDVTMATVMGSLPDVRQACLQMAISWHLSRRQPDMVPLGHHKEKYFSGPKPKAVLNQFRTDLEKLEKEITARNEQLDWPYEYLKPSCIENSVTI
# About 6,100 (1.1%) of roughly 580,000 compounds were called active. This list was built around the results that the source calls inconclusive (neither active nor inactive); the mix of calls is not that of the screen. Calls follow the shape of the dose curve; as a rule, active = well fitted inhibition curve with a large enough effect; inconclusive = small, poorly fitted or top-dose-only effect, or another doubt; inactive = no such curve, though single readings can be large or run the other way. A potency beside an inconclusive call is a rough fit, not a confirmed value.
# Molecular target: Polyunsaturated fatty acid lipoxygenase ALOX12 (Homo sapiens) (UniProt P18054)
# Test: Primary qHTS assay for inhibitors of human arachidonate 12S-lipoxygenase (ALOX12): Round 2
# Conditions: purified 12hLO, xylenol orange hydroperoxide absorbance; series mostly up to 108 µM
# Summary of the method: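 Purified human 12hLO at 150 nM in 25 mM Hepes, 0.01% Triton X-100, pH 7.0, preincubated 15 min at room temperature with compound. Reaction started with 40 uM arachidonic acid, 30 min at room temperature. Hydroperoxide measured by Fe-xylenol orange, 573/405 nm absorbance ratio.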
# Potency is read from the fitted curve at half-maximal effect.
row,Structure (SMILES),Potency
1,COc1ccc(OC)c(CNCCc2ccc(OC)c(OC)c2)c1,"inconclusive: 31.6 µM [inhibitor, partial curve, poor fit]"
2,O=S(=O)(O)C(=Cc1ccccc1)c1ccccc1 (tested in a mixture with another compound),"inconclusive: 100 µM [inhibitor, partial curve, poor fit]"
3,Fc1cccc(-c2ccc3c(c2)CN(C(=S)NCCc2ccccc2)Cc2cnnn2-3)c1,inactive
4,Cn1cccc1/C=C1\C(=O)NC(=O)N(CCC2=CCCCC2)C1=O,inactive
5,NC(Cc1ccc(Cl)cc1)c1csc(Nc2ccccn2)n1 (centres undefined),"inconclusive: 56.2 µM [inhibitor, single point]"
6,CCCCC(=O)N/N=C/c1c(O)n(CC)c(=S)[nH]c1=O,"inconclusive: 39.8 µM [inhibitor, partial curve, poor fit]"
7,COc1ccc(C2=CC(c3ccc(OC)c(OC)c3)c3c(c4ccccc4oc3=O)O2)cc1OC (centres undefined),inactive
8,Fc1ccc(C2NCc3ccccc3-n3cccc32)cc1 (centres undefined),"inconclusive: 56.2 µM [inhibitor, partial curve, poor fit]"
9,CSc1ncc(/C=C2/C(=O)NC(=O)N(C3CCCCC3)C2=O)cn1,"inconclusive: 44.7 µM [inhibitor, partial curve, poor fit]"
10,O=C(NCc1ccc(F)cc1)[C@H]1CN2CCC1C[C@@H]2Cn1cc(C2(O)CCCCC2)nn1 (some centres undefined),inactive
11,OC(CC#CCN1CCCCCC1)(c1ccccc1)C1CCCC1 (centres undefined),"inconclusive: 79.4 µM [inhibitor, single point]"
12,N#CCCNc1ccccc1,inactive
13,CCCCNC(=O)NC(=O)CCl,"inconclusive: 28.2 µM [inhibitor, partial curve, poor fit]"
14,CC(=O)c1ccc(NC(=O)NC[C@H]2C[C@@H]3CCN2C[C@@H]3CN2CCN(C)CC2)cc1,"inconclusive: 44.7 µM [inhibitor, partial curve, poor fit]"
15,CC(C)NC(=O)N1CC[C@@H](CC(=O)O)[C@@H](CCN2C[C@@H]3C[C@H](C2)c2cccc(=O)n2C3)C1,"inconclusive: 22.4 µM [inhibitor, partial curve]"
16,CCOc1ccc(N=Cc2c(O)n(CCc3ccc(OC)c(OC)c3)c(=O)[nH]c2=O)cc1,"inconclusive: 100 µM [inhibitor, partial curve, poor fit]"
17,Cc1ccc(N2C(=O)NC(=O)/C(=C\C=C\c3ccco3)C2=O)cc1C,active: 39.8 µM
18,CN1CCN(C(=O)CCc2ccncc2)CC12CCNCC2,"inconclusive: 5.62 µM [inhibitor, full curve, poor fit]"
19,CCOc1ccc(C=C2C(=O)NC(=S)NC2=O)cc1OCC,"inconclusive: 63.1 µM [inhibitor, partial curve, poor fit]"
20,Cc1ccc(OP(=O)(NCc2ccccc2)Oc2ccc(C)cc2)cc1,"inconclusive: 39.8 µM [inhibitor, partial curve, poor fit]"
21,CCN1C(=O)CCNCC12CCOCC2,inactive
22,CCN(CC)c1ccc(/C=C2\C(=O)NC(=O)N(Cc3ccco3)C2=O)cc1,active: 44.7 µM

row,Structure (SMILES),Potency
1,CCCS(=O)(=O)N1C[C@@H]2C[C@H](C1)c1c(-c3ccccc3)ccc(=O)n1C2,"inconclusive: 100 µM [inhibitor, partial curve]"
2,COc1ccc(CC(C)NC2CCCCCC2)cc1 (centres undefined),"inconclusive: 39.8 µM [inhibitor, partial curve, poor fit]"
3,Cc1ccccc1N1C(=O)NC(=O)/C(=C\c2cnn(-c3ccccc3)c2)C1=O,"inconclusive: 39.8 µM [inhibitor, partial curve, poor fit]"
4,CN1CC(C(=O)c2ccc(Cl)cc2)C(c2ccccc2)C1 (centres undefined),"inconclusive: 35.5 µM [inhibitor, single point]"
5,O=S(=O)(F)c1ccc2nc(-c3cccc(Sc4ccccc4)c3)cc(Cl)c2c1,"inconclusive: 100 µM [inhibitor, single point]"
6,CCOC(=O)[C@]12Cc3cc(Cl)ccc3[C@H]1N(Cc1ccccc1)C(=O)c1cc(OC)ccc12,"inconclusive: 22.4 µM [inhibitor, partial curve, poor fit]"
7,Brc1cccc(CNCCc2ccc3c(c2)OCO3)c1,"inconclusive: 2.24 µM [inhibitor, full curve]"
8,COc1cc2c(cc1Oc1ccccc1)NC(=O)C21CCN(C(=O)C(C)C)CC1,inactive
9,COC(=O)C1=C(c2cc3ccccc3o2)C[C@@H]2CC[C@H]1N2C(=O)NCCO,"inconclusive: 35.5 µM [inhibitor, single point]"
10,O=S(=O)(NC[C@H]1C[C@@H]2CCN1C[C@@H]2CN1CCC(Cc2ccccc2)CC1)c1ccc(Cl)cc1,"inconclusive: 20 µM [inhibitor, full curve]"
11,C=CCn1c(O)c(C(CC)=NCCc2ccccc2)c(=O)[nH]c1=O,inactive
12,COC(=O)C1=C(c2ccc3ccccc3c2)C[C@@H]2CC[C@H]1N2C(=O)NCCO,inactive
13,COc1ccc(NC(=O)CN(C)C(=O)CSC(c2ccccc2)c2ccccc2)cc1,"inconclusive: 126 µM [inhibitor, single point]"
14,Cc1cc(C)cc(N2C(=O)NC(=O)/C(=C\c3cccn3-c3ccccc3)C2=O)c1,inactive
15,O=C(COc1ccc2ccccc2c1)N1CCN(CC2CC3C=CC2C3)CC1 (centres undefined),"inconclusive: 0.0794 µM [inhibitor, full curve, poor fit]"
16,O=C1c2ccccc2C(=O)C1C(=O)C(c1ccccc1)c1ccccc1,"inconclusive: 22.4 µM [inhibitor, partial curve, poor fit]"
17,Cc1[nH]c2ccc(C34CC5CC(CC(C5)C3)C4)cc2c1CCN,active: 31.6 µM
18,CN(C)Cc1c[nH]c2cc([N+](=O)[O-])ccc12,"inconclusive: 89.1 µM [inhibitor, partial curve, poor fit]"
19,N#CC1=C(N)Oc2nc(SCc3ccccc3Cl)nc(N)c2C1c1ccccc1F (centres undefined),"inconclusive: 0.224 µM [inhibitor, full curve, poor fit]"
20,CC1=CC(=C2C(=O)NC(=O)NC2=O)C=C(C(F)(F)F)N1C(C)C,inactive
21,CC/C(=N\Nc1ccccc1)c1c(O)[nH]c(=O)[nH]c1=O,"inconclusive: 50.1 µM [inhibitor, partial curve, poor fit]"
22,Cc1c(C(=O)O)cc(-c2ccccc2)n1Cc1ccccc1,inactive

# Laid out differently: entries from further up.
row	Structure (SMILES)	Potency
19	N#CC1=C(N)Oc2nc(SCc3ccccc3Cl)nc(N)c2C1c1ccccc1F (centres undefined)	inconclusive: 0.224 µM [inhibitor, full curve, poor fit]
20	CC1=CC(=C2C(=O)NC(=O)NC2=O)C=C(C(F)(F)F)N1C(C)C	inactive

# Taken from above.
# CC/C(=N\Nc1ccccc1)c1c(O)[nH]c(=O)[nH]c1=O | Potency: inconclusive: 50.1 µM [inhibitor, partial curve, poor fit]
# Cn1cccc1/C=C1\C(=O)NC(=O)N(CCC2=CCCCC2)C1=O | Potency: inactive
# Fc1ccc(C2NCc3ccccc3-n3cccc32)cc1 (centres undefined) | Potency: inconclusive: 56.2 µM [inhibitor, partial curve, poor fit]

# Following part:

row,Structure (SMILES),Potency
1,N#Cc1cccc(NC(=O)CSc2nc3c(cc2C#N)N2CCC3CC2)c1,"inconclusive: 35.5 µM [inhibitor, partial curve, poor fit]"
2,O=[N+]([O-])c1cccc2c([As](=O)(O)O)cccc12,"inconclusive: 35.5 µM [inhibitor, partial curve, poor fit]"
3,COc1cc(C(=O)NC(=S)N2C[C@H]3C[C@H](C2)c2cccc(=O)n2C3)cc(OC)c1OC,"inconclusive: 0.794 µM [inhibitor, full curve, poor fit]"
4,Cc1nc2cc(-c3ccc(Cl)cc3)nn2c(C)c1CCC(=O)N1CCC2(CC1)OCCO2,"inconclusive: 39.8 µM [inhibitor, single point]"
5,O=[N+]([O-])c1oc2ccc3ccccc3c2c1CCO,"inconclusive: 56.2 µM [inhibitor, partial curve, poor fit]"
6,CCC(=NCc1cc(OC)cc(OC)c1)c1c(O)n(C2CCCCC2)c(=O)[nH]c1=O,"inconclusive: 39.8 µM [inhibitor, full curve, poor fit]"
7,Cc1noc(C)c1CN1CCCCC1c1cccnc1 (centres undefined),inactive
8,O=C1NC[C@H]2CN(Cc3ccccc3)CCN12,inactive
9,CCN(CC)CCCNC(=O)c1c(O)c2ccccc2n(Cc2ccccc2)c1=O,"inconclusive: 35.5 µM [inhibitor, partial curve, poor fit]"
10,CN(C)C(=O)Oc1ccc2c(=O)c(-c3ccc(Br)cc3)c(C(F)(F)F)oc2c1,inactive
11,O=[N+]([O-])c1ccc(C2[C@H]3C(c4ccccc4)=NC4(CCCC4)N23)cc1 (some centres undefined),"inconclusive: 63.1 µM [inhibitor, partial curve, poor fit]"
12,COC(=O)C1C(OC(=O)c2ccccc2)CC2CCC1[N+]2(C)C (centres undefined),"inconclusive: 89.1 µM [inhibitor, single point]"
13,COc1ccc(OC)c(N2C(=O)NC(=O)/C(=C/c3ccc([N+](=O)[O-])s3)C2=O)c1,active: 39.8 µM
14,O=C1NC(=O)N(CCc2ccc(F)cc2)C(=O)/C1=C\C=C\c1ccccc1,"inconclusive: 44.7 µM [inhibitor, partial curve, poor fit]"
15,Nc1ccc2ccc3cccc[n+]3c2c1,"inconclusive: 15.8 µM [inhibitor, partial curve, poor fit]"
16,CC(=O)OC1CC(OC2C(O)CC(OC3C(O)CC(OC4CC(O)C5(C)C(CC[C@@H]6[C@@H]5CCC5(C)C(C7=CC(=O)OC7)CCC65O)C4)OC3C)OC2C)OC(C)C1O (some centres undefined),inactive
17,CCCOC(=O)C1C2CCC(O2)C1C(=O)O (centres undefined),"inconclusive: 39.8 µM [inhibitor, partial curve, poor fit]"
18,O=c1c2ccccc2nc(/C=C/c2ccc(F)cc2)n1-c1ccccc1O,inactive
19,CNC(=O)OCc1n(C)cc[n+]1C,"inconclusive: 70.8 µM [inhibitor, partial curve, poor fit]"
20,Oc1ccc2c3c1O[C@H]1c4[nH]c5c(c4CC4(O)C(C2)N(CC2CC2)CCC314)CC1(O)[C@H]2Cc3ccc(O)c4c3[C@@]1(CCN2CC1CC1)C5O4 (some centres undefined),"inconclusive: 50.1 µM [inhibitor, partial curve, poor fit]"
